Assay results published in PubChem BioAssay AID2685 (National Center for Advancing Translational Sciences (NCATS), 2010).
The other results are listed elsewhere or left out. The main result of the screen is listed elsewhere. These columns were measured beside it and carry no call. Compounds called inactive in the main read-out are mostly missing here. Potencies come from curve fits of mixed quality, noted in brackets.

Assay: qHTS Assay for Lipid Storage Modulators in Drosophila S3 Cells;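 as to cell number change: cells counted by Cell Tracker Red CMTPX staining in the red channel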
Conditions: BODIPY lipid droplet fluorescence, 18-24 h; for cell number change: measured here: cell count max response, cells fed with added oleic acid
Outline: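 Laser-scanning cytometry quantifies lipid droplet accumulation (500–530 nm total intensity; droplet/cell object ratio) in oleic acid-fed (400 uM added) Drosophila S3 cells treated with a concentration series. 20 uM Triacsin C defined 100% inhibition.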

[1] = measured here: cell number channel AC50, cells fed with added oleic acid
[2] = measured here: lipid fluorescence (Fed channel) AC50, cells fed with added oleic acid

Row | Structure (SMILES) | cell number change [%] | AC50 [1] | AC50 [2]
1 | CCn1ncc(Br)c1C(=O)Nc1ccc(OC(F)(F)F)cc1 | -6.38 |  | 
2 | CCOC(=O)c1cc(NC(=O)c2cc(C)on2)cc(C(=O)OCC)c1 | 7.1 |  | 
3 | Fc1ccc(NC(=S)Nc2cccnc2)cc1 | -83.4 | 18.4 µM [falling, single point] | 29.1 µM [falling, partial curve]
4 | COC(=O)c1ccc(C(=O)OC)c(NC(=O)CN2CCN(c3ccc(OC)cc3)CC2)c1 | -8.57 | 0.13 µM [rising, full curve] | 4.11 µM [rising, partial curve, poor fit]
5 | O=C(CCN1C(=O)[C@@H]2Cc3ccccc3CN2C1=O)NCCc1ccccc1 | 2.27 | 3.66 µM [rising, partial curve, poor fit] | 
6 | Cc1[nH]c2ccccc2c1/C=N/NC(=O)c1cccc(S(=O)(=O)Nc2cccc(C(F)(F)F)c2)c1 | -91.1 | 29.1 µM [falling, single point] | 20.6 µM [falling, partial curve]
7 | COc1ccc(Cl)cc1N(CC(=O)NCCSc1ccccn1)S(=O)(=O)c1ccccc1 |  |  | 29.1 µM [falling, single point]
8 | O=C(Nc1nnc(COc2ccc(Cl)cc2)s1)c1ccc([N+](=O)[O-])cc1 | 15 |  | 10.3 µM [rising, partial curve, poor fit]
9 | Cc1cc(-c2c(C)[nH]n(-c3ccccc3)c2=O)n[nH]1 | -44.3 | 9.2 µM [falling, partial curve] | 29.1 µM [falling, single point]
10 | Cn1c(C(=O)NCCN2CCCCCC2)cc2c(=O)n(C)c3ccccc3c21 |  | 2.59 µM [falling, single point] | 3.66 µM [falling, partial curve]
11 | CCc1nnc(NC(=O)C2CCN(c3nc(C)cc(C)n3)CC2)s1 | -4.05 |  | 3.26 µM [falling, single point]
12 | O=C(Nc1c(F)cc(F)cc1Br)c1cc(-c2ccccc2)on1 | -8.03 |  | 
13 | CCOc1ccc(/C=N/NC(=O)c2c(C)n(C)c3ccc(OC)cc23)cc1 | 37.2 | 9.2 µM [rising, partial curve] | 8.2 µM [rising, partial curve]
14 | COc1ccccc1C1C(C(N)=O)=C(C)Nc2nc(-c3ccc(Cl)cc3)nn21 (centres undefined) | 13.6 |  | 6.51 µM [falling, single point]
15 | O=C(O)c1cccc(N(CCO)CCO)c1 | -1.07 |  | 
16 | O=C(COc1ccccc1Cl)Nc1ccccc1C(=O)N1CCCCC1 | 1.61 | 0.146 µM [rising, full curve, poor fit] | 25.9 µM [falling, single point]
17 | Cc1ccc(NC(=O)CN2CCc3cc4c(cc3C2C)OCCCO4)cc1 (centres undefined) | 10.4 |  | 
18 | Clc1ccc(-c2cnc3ccccc3n2)cc1 | 14.6 | 6.51 µM [rising, single point] | 29.1 µM [falling, single point]
19 | CC(=O)C1C(=O)c2c(cccc2[N+](=O)[O-])C1=Nc1cccc(Cl)c1 (centres undefined) | 7.15 |  | 32.6 µM [rising, single point]
20 | CN(C)S(=O)(=O)c1ccc(C(=O)NCCC(=O)N2CCCC2)cc1 | 10.5 |  | 

Row | Structure (SMILES) | cell number change [%] | AC50 [1] | AC50 [2]
21 | O=C(C1=C[C@@H](c2ccc(C(F)(F)F)cc2)C[C@@H](OCc2ccc(CO)cc2)O1)N1CCN(Cc2ccc3c(c2)OCO3)CC1 | -10.9 |  | 1.64 µM [falling, partial curve]
22 | O=C(NNC(=O)NC1CCCCC1)NC1CCCCC1 | -35.3 | 4.11 µM [falling, single point] | 2.06 µM [falling, partial curve]
23 | CC[C@]1(c2ccccc2C)ON(c2ccccc2C(F)(F)F)C1=O | -2.72 | 0.092 µM [falling, partial curve] | 1.16 µM [rising, single point]
24 | COc1ccc(C2(C(=O)NCCCN(C)C)CCOCC2)cc1 | -34.9 | 4.11 µM [falling, full curve, poor fit] | 10.3 µM [falling, partial curve, poor fit]
25 | O=C(Nc1ccc(Oc2c(F)c(F)c(F)c(F)c2F)cc1)OC1CCN2Cc3ccccc3N=C12 (centres undefined) | -33.6 | 10.3 µM [falling, partial curve] | 7.31 µM [falling, partial curve]
26 | COc1cc(C#N)c(NC(=O)CN2CCN(CCO)CC2)cc1OC | -92.2 |  | 
27 | Cc1nn(CCc2nn[nH]n2)c2nc(-c3ccc(Br)cc3)cc(C(F)(F)F)c12 |  | 6.51 µM [rising, single point] | 1.03 µM [rising, full curve, poor fit]
28 | CCOC(=O)C1CCCN(Cc2cccs2)C1 (centres undefined) | -74.9 | 29.1 µM [falling, single point] | 2.31 µM [falling, full curve]
29 | Cc1ccc(C(=O)N2CCC3(CC2)Oc2ccc(F)cc2C(=O)C32CC(c3ccc(Cl)cc3)=NO2)s1 (centres undefined) | 14.2 |  | 3.26 µM [rising, single point]
30 | Fc1ccc(NC(=S)N2CCc3ccccc32)cc1 |  |  | 23.1 µM [falling, partial curve, poor fit]
31 | COc1ccc(NC(=O)c2cc3cc(C)ccc3n2C)c(OC)c1 | 25.2 |  | 
32 | Cc1cc(C(=O)CCC(=O)Nc2ccc(S(N)(=O)=O)cc2)c(C)s1 | -16.6 |  | 
33 | COc1ccc(/C=N/n2cc(-c3ccc(OC)cc3)nc2N)cc1 |  | 2.91 µM [rising, partial curve, poor fit] | 3.26 µM [rising, partial curve]
34 | COc1nc(C)cc(C)c1S(=O)(=O)c1ccc(Cl)cc1 | 16.8 |  | 
35 | Cc1cc(C(=O)CSc2nncs2)c(C)n1-c1c(C)n(C)n(-c2ccccc2)c1=O | -0.39 |  | 
36 | Cc1ccc(N(CC(O)CN2C(=O)NC(C)(C)C2=O)S(=O)(=O)c2ccc([N+](=O)[O-])cc2)cc1 (centres undefined) | -3.54 |  | 6.51 µM [falling, single point]
37 | CCN(c1ccccc1)S(=O)(=O)c1ccc(C(=O)N(CCN(C)C)c2nc3c(F)cc(F)cc3s2)cc1 | -24.8 |  | 0.58 µM [falling, single point]
38 | CCCC(=O)Nc1ccc2nn(-c3ccc(OC)cc3)nc2c1 | -0.587 |  | 
39 | Cc1ccc(S(=O)(=O)NNC(=O)c2ccc(NC(=O)C3CC3)cc2)cc1 | 5.67 | 0.326 µM [rising, partial curve, poor fit] | 
40 | CCOc1ccc(CCNC(=O)c2cc3c(s2)CS(=O)(=O)C3)cc1OCC | 29.7 |  | 

Row | Structure (SMILES) | cell number change [%] | AC50 [1] | AC50 [2]
41 | CCCCc1nc2cc(C(=O)N3CCCC3)ccc2o1 | -3.4 |  | 29.1 µM [falling, single point]
42 | COc1ccc(OC)c(NC(=O)CSc2nc3scc(C)c3c(=O)[nH]2)c1 | 6.09 |  | 
43 | COc1cc([N+](=O)[O-])ccc1NC(=S)NNC(=O)CCC(=O)Nc1ccccc1Cl | 3.24 |  | 0.146 µM [rising, full curve, poor fit]
44 | CCCc1cc(=O)oc2c(C)c(OCC(=O)N3CCC(C(=O)O)CC3)ccc12 | 8.43 |  | 
45 | Clc1ccc(C[n+]2csc3ccccc32)cc1 | -0.326 |  | 0.058 µM [falling, full curve, poor fit]
46 | COc1cccc(CN2CCNC(=O)C2CC(=O)N2CCCCO2)c1OC (centres undefined) | -0.149 |  | 0.731 µM [falling, single point]
47 | Cc1ccccc1C(=O)NNC(=O)C(C)N1C(=O)c2ccccc2C1=O (centres undefined) | -114 | 0.651 µM [falling, single point] | 0.651 µM [falling, single point]
48 | Cc1sc2nc(CSc3nnc(Cc4cccs4)n3C3CCCCC3)[nH]c(=O)c2c1C | -0.785 |  | 
49 | Cn1ncc(C(=O)Nc2ccc(OC(F)(F)F)cc2)c1-n1cccc1 | 31.5 | 1.64 µM [rising, full curve] | 5.8 µM [rising, full curve]
50 | O=C(COc1ccccc1)NCC(c1ccco1)N1CCCCC1 (centres undefined) |  | 0.146 µM [rising, full curve, poor fit] | 
51 | CCCC(=O)c1c[nH]c(C(=O)N2CCOCC2)c1 | 17.3 |  | 2.06 µM [falling, partial curve, poor fit]
52 | CN1CCN(C(=O)/C=C/c2cn(-c3ccccc3)nc2-c2ccc3c(c2)OCCO3)CC1 | 81.7 | 0.146 µM [rising, full curve, poor fit] | 0.103 µM [rising, full curve, poor fit]
53 | COc1cccc(NC(=S)/C(=C(\[O-])c2ccc(OC(F)F)cc2)[n+]2ccccc2)c1 | 4.69 |  | 6.51 µM [rising, single point]
54 | CCCN(CC(=O)Nc1ccccc1C)C(=O)c1ccc(S(=O)(=O)N2CCCC2)cc1 | -1.98 | 0.58 µM [falling, full curve] | 0.58 µM [falling, full curve]
55 | COC(=O)C1=C(C)N=C2SC(C)C(=O)N2C1c1cccs1 (centres undefined) | -15.5 |  | 
56 | CC1(C)Cc2nc(N3CCOCC3)c(C#N)cc2CO1 | 21.5 |  | 18.4 µM [falling, partial curve]
57 | COCCn1c(N)c(C#N)c2nc3ccccc3nc21 | 46.4 | 9.2 µM [rising, partial curve, poor fit] | 16.4 µM [rising, partial curve]
58 | Cc1cc(OCc2nn[nH]n2)c2c(-c3ccccc3)cc(=O)oc2c1 |  |  | 16.4 µM [rising, single point]
59 | NC(=O)C(c1ccccn1)c1ncc(C(F)(F)F)cc1Cl (centres undefined) | 126 | 0.00517 µM [falling, full curve, poor fit] | 

Compounds 15 through 16, reprinted for reference:
Row | Structure (SMILES) | cell number change [%] | AC50 [1] | AC50 [2]
15 | O=C(O)c1cccc(N(CCO)CCO)c1 | -1.07 |  | 
16 | O=C(COc1ccccc1Cl)Nc1ccccc1C(=O)N1CCCCC1 | 1.61 | 0.146 µM [rising, full curve, poor fit] | 25.9 µM [falling, single point]
